Experimental data from PMC7930485.
Results are given in words; binding and its absence hold for the method and conditions named. Binding seen in cells or lysates may run through a third protein. Binding can be weak; no strength is given.

Target: T1, γ-catenin (human (endogenous in HK-2)) (UniProt P14923)
T1 sequence: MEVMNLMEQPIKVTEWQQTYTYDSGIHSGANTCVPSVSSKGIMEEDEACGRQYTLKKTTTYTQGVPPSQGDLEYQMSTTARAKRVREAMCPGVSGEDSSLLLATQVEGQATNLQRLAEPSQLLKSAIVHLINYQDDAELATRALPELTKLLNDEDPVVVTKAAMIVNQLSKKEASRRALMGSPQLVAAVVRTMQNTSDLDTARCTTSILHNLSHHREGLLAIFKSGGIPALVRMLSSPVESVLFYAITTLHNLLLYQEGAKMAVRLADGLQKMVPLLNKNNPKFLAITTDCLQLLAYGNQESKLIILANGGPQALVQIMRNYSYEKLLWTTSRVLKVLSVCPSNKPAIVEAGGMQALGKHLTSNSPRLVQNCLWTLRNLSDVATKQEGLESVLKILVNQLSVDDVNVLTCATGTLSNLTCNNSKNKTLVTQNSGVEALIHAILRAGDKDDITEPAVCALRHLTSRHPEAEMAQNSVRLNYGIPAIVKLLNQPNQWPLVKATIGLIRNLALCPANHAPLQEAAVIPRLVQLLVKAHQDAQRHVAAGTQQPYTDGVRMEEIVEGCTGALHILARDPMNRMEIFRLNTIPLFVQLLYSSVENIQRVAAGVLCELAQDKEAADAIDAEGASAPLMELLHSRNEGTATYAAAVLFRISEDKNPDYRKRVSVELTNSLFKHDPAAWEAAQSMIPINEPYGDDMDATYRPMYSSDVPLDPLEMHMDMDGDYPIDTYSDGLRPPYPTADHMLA
Test: co-IP; anti-CD47 or anti-γ-catenin on Protein G Sepharose beads, HK-2 cell lysate (IP buffer with protease inhibitors), 4°C 12 h; gel electrophoresis and blot; cells with or without OX-LDL

binding: binds
Substance: E-cadherin (human (endogenous in HK-2))
